Experimental data reported in the supplement of paper PMC10849652.
The list shows a part of the results. Residues, ends and D or L forms follow the SMILES beside them. *: point of attachment. Cbz = O=C(OCc1ccccc1)*

The chains behind the UniProt entries cited, without tags or fusion partners. Where a name states a change or a piece, a line headed by the entry shows the natural chain unless it says otherwise.
UniProt Q9UBU8, whole entry, looked up: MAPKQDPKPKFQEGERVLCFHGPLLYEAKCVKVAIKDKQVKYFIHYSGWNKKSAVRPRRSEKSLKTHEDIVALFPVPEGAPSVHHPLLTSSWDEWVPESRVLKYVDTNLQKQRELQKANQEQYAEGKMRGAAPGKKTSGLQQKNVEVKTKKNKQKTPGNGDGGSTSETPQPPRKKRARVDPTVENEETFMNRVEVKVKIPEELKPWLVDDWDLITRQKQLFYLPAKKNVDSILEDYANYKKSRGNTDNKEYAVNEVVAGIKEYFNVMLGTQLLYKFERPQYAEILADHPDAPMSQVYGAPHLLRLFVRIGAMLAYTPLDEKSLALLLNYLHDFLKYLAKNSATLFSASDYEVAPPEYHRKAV
UniProt Q8IY33: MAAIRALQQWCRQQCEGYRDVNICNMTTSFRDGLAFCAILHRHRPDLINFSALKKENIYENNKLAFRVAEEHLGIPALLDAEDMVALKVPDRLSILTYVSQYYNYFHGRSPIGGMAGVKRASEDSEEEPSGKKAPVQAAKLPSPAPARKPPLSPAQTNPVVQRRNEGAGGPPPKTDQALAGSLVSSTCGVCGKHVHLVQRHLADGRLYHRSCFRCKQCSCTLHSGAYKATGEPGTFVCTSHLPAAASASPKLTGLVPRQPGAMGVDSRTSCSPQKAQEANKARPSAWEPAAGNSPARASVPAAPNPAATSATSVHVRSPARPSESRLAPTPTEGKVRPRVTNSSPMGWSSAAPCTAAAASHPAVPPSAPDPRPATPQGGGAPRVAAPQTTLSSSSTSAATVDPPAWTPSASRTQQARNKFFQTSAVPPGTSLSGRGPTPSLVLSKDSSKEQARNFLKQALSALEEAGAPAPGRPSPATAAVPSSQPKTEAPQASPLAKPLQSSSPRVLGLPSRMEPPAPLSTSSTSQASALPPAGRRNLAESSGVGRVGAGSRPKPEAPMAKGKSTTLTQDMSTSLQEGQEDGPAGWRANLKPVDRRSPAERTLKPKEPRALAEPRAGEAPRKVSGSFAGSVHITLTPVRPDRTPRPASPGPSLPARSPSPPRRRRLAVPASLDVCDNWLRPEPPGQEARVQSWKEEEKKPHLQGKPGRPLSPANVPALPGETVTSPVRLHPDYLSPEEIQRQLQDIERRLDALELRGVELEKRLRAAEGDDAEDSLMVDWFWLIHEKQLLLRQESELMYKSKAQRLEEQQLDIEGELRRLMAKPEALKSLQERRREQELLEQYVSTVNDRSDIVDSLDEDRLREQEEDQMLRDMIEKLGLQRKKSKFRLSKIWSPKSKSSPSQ
UniProt P22033: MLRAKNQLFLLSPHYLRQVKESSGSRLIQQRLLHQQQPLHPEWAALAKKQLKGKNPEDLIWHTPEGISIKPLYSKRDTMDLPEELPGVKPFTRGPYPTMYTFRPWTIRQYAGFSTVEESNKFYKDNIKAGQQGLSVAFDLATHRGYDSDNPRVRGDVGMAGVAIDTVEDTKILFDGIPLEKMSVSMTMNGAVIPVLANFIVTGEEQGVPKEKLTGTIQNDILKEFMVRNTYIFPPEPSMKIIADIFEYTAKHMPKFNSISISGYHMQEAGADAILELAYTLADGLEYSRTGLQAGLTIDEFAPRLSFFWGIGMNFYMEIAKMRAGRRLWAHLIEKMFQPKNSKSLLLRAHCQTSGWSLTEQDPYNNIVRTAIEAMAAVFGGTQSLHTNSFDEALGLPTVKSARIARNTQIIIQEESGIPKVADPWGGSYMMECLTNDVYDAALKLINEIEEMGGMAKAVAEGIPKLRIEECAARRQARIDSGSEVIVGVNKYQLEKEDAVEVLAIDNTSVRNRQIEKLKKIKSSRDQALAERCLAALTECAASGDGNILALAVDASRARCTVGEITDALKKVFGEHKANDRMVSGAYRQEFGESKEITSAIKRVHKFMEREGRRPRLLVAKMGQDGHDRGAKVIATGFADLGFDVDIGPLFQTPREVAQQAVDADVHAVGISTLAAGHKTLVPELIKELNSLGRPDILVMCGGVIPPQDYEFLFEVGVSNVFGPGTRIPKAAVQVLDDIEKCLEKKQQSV
UniProt Q9NYP9: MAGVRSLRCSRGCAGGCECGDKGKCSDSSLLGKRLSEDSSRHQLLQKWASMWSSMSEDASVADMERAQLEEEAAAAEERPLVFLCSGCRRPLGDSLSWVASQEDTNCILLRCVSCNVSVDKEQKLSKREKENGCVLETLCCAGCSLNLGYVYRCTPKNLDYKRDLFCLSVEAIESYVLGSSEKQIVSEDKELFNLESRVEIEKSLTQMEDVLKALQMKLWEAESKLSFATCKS
UniProt O96007: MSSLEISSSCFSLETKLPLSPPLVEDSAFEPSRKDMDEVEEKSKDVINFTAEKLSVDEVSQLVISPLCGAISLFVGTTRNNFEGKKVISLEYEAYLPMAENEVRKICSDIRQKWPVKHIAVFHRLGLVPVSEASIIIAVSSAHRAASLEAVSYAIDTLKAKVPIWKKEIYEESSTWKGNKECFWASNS
UniProt P49959: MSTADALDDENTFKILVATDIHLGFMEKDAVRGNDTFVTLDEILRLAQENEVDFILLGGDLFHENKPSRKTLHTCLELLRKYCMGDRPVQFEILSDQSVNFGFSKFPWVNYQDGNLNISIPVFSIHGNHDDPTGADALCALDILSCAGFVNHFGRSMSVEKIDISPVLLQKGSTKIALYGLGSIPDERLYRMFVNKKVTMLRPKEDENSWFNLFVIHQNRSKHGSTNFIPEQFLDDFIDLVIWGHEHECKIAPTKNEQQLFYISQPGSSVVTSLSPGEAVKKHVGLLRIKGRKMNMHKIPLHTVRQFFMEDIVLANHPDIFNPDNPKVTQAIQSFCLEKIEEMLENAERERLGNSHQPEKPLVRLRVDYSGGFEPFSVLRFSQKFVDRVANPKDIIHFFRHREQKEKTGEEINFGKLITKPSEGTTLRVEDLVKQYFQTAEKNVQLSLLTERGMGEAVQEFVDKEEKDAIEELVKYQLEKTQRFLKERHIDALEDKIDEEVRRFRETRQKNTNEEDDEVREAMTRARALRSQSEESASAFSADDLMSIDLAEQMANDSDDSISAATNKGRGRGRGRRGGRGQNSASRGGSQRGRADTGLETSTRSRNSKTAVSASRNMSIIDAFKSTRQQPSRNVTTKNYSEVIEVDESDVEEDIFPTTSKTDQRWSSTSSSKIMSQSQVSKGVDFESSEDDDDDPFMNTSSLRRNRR
UniProt Q9HC36: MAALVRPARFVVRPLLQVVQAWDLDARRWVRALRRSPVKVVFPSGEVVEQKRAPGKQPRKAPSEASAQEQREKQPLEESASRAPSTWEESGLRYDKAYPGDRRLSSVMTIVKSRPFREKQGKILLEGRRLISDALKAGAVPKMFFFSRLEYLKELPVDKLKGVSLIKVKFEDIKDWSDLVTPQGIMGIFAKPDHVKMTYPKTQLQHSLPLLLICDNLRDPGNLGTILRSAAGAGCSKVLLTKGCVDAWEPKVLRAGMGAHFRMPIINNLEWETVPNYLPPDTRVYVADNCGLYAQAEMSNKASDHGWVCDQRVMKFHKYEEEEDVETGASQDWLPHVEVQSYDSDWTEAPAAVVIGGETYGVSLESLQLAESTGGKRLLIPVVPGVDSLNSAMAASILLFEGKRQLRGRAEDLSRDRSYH
UniProt Q8N4V1: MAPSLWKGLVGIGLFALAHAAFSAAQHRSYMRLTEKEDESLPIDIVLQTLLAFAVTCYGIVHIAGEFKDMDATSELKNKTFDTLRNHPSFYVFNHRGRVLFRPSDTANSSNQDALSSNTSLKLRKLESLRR

How the values were obtained:
Assay in all cases: log2 fold change, soluble protein after heating vs DMSO (PISA); higher = thermal stabilisation; K562 cells, 10 uM, 30 min; active = over 0.2 and 3.5 SD of the protein, either way, in both replicates (recomputed)
erlotinib = compound: C#Cc1cccc(Nc2ncnc3cc(OCCOC)c(OCCOC)cc23)c1 [erlotinib]
Method in brief: (§1)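 K562 cells at 2×10^6 cells/mL were exposed to 10 μM compound for 30 min, then aliquots were heated for 3 min across 48°C-58°C, pooled, and extracted in PBS containing 0.5% NP-40 at 4°C. The supernatant after 21,000xg for 90 min was taken as soluble protein and measured by TMTpro 16plex LC-MS/MS with channel sums equalised. Thermal stability is reported relative to control samples, with values from duplicates. Fold changes are given on a log2 scale.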

[1] = compound: C/C(=N\NC(=O)C1=CC(=CC=C1)S(=O)(=O)N2CCOCC2)/C3=C(C=CC(=C3)Cl)O
Method in brief: as §1

[2] = compound: C1=CC(=C(C=C1Cl)C2=NC3=NC=CN=C3C(=N2)NC4=CC=NC=C4)F
Method in brief: as §1

[3] = compound: C1=CC(=CC=C1C2=NC3=C(N2)C=C(C=C3)C(=O)N)OC4=CC=C(C=C4)Cl
Method in brief: as §1

[4] = compound: C1=CC2=C(C=CC(=C2)/C=C\3/C(=O)NC(=NCC4=CC=CS4)S3)N=C1
Method in brief: as §1

[5] = compound: C1=CC2=NC=CN=C2C=C1/C=C/3\C(=O)NC(=O)S3
Method in brief: as §1

[6] = compound: C1=CC=C(C=C1)C2=NC(=C(N2)C3=CC=NC=C3)C4=CC(=C(C=C4)Cl)O
Method in brief: as §1

[7] = compound: C1=CC=C2C(=C1)C3=NNC4=CC=CC(=C43)C2=O
Method in brief: as §1

[8] = compound: C1CCN(C1)C(=O)NC2=CC=CC(=C2)NC3=NC=C(C(=N3)NCCC4=CN=CN4)Br
Method in brief: as §1

[9] = compound: C1CN(CCC1(CC2=CC=C(C=C2)Cl)N)C3=NC=NC4=C3C=CN4
Method in brief: as §1

IRAK-1-4 Inhibitor I = compound: C1COCCN1CCN2C3=CC=CC=C3N=C2NC(=O)C4=CC(=CC=C4)[N+](=O)[O-] [IRAK-1-4 Inhibitor I]
Method in brief: as §1

ibrutinib = compound: C=CC(=O)N1CCC[C@@H](n2nc(-c3ccc(Oc4ccccc4)cc3)c3c(N)ncnc32)C1 [ibrutinib]
Method in brief: as §1

[10] = compound: CC(=O)c1cnc2ccc(-c3cc(Cl)c(O)c(Cl)c3)nc2c1N[C@H]1CC[C@H](CN(C)C)CC1
Method in brief: as §1

ralimetinib = compound: CC(C)(C)Cn1c(N)nc2ccc(-c3[nH]c(C(C)(C)C)nc3-c3ccc(F)cc3)nc21 [ralimetinib]
Method in brief: as §1

[11] = compound: CC(C)(O)CC(=O)NCCn1ccc2ncnc(Nc3ccc(Oc4cccc(C(F)(F)F)c4)c(Cl)c3)c21
Method in brief: as §1

[12] = compound: CC(C)C1=C2N=C(C=C(N2N=C1)NCC3=CC=CC=C3)NCCCCCCN
Method in brief: as §1

[13] = compound: CC(C)C[C@@H](C=O)NC(=O)[C@H](CC(C)C)NC(=O)[C@H](CC(C)C)NC(=O)OCc1ccccc1
Method in brief: as §1

pinometostat = compound: CC(C)N(C[C@H]1O[C@@H](n2cnc3c(N)ncnc32)[C@H](O)[C@@H]1O)[C@H]1C[C@@H](CCc2nc3cc(C(C)(C)C)ccc3[nH]2)C1 [pinometostat]
Method in brief: as §1

[14] = compound: CC1=C(C(CC(=O)N1)C2=CC=C(C=C2)C(F)(F)F)C(=O)NC3=C(C=C4C(=C3)C=NN4)F
Method in brief: as §1

[15] = compound: CC1=C(C2=C(C=C1)C(=O)C3=CC=CC=C3N2CCCN)C
Method in brief: as §1

Measured: log2 fold change

MORF4L1 isoform 2 (UniProt Q9UBU8)
inactive: erlotinib 0.026 | [1] 0.007 | [2] -0.059 | [3] -0.021 | [4] 0.005 | [5] 0.008 | [6] -0.016 | [7] -0.01 | [8] -0.053 | [9] 0.021 | IRAK-1-4 Inhibitor I -0.001 | ibrutinib 0.008 | [10] -0.01 | ralimetinib -0.006 | [11] -0.102 | [12] 0.013 | [13] 0.151 | pinometostat 0.062 | [14] -0.013 | [15] -0.018

MICALL2 (UniProt Q8IY33)
inactive: erlotinib 0.233 | [1] 0.017 | [2] 0.033 | [3] 0.059 | [4] 0.033 | [5] 0.038 | [6] 0.015 | [7] 0.045 | [8] -0.02 | [9] 0.024 | IRAK-1-4 Inhibitor I -0.045 | ibrutinib -0.053 | [10] -0.064 | ralimetinib -0.034 | [11] -0.053 | [12] -0.119 | [13] -0.057 | pinometostat 0.021 | [14] -0.015 | [15] -0.016

MRPL37 (UniProt Q9BZE1)
inactive: erlotinib -0.084 | [1] -0.119 | [2] -0.09 | [3] 0.064 | [4] -0.031 | [5] 0.016 | [6] 0.036 | [7] 0.129 | [8] -0.066 | [9] -0.157 | IRAK-1-4 Inhibitor I -0.111 | ibrutinib -0.025 | [10] 0.003 | ralimetinib 0.116 | [11] 0 | [12] 0.028 | [13] 0.132 | pinometostat 0.12 | [14] 0.029 | [15] -0.037

MMUT (UniProt P22033)
inactive: erlotinib 0.011 | [1] 0.035 | [2] 0.037 | [3] 0.018 | [4] 0.018 | [5] 0.008 | [6] -0.012 | [7] 0.003 | [8] -0.065 | [9] 0.04 | IRAK-1-4 Inhibitor I 0.012 | ibrutinib -0.019 | [10] -0.072 | ralimetinib -0.027 | [11] 0.112 | [12] -0.004 | [13] 0.047 | pinometostat -0.002 | [14] -0.013 | [15] 0.015

MIS18A (UniProt Q9NYP9)
inactive: erlotinib 0.031 | [1] 0.037 | [2] -0.041 | [3] -0.001 | [4] -0.026 | [5] 0.031 | [6] 0.044 | [7] -0.019 | [8] 0.007 | [9] 0.005 | IRAK-1-4 Inhibitor I -0.01 | ibrutinib 0.003 | [10] -0.004 | ralimetinib -0.032 | [11] 0.024 | [12] -0.032 | [13] -0.015 | pinometostat -0.037 | [14] 0.051 | [15] -0.016

MRPL40 (UniProt Q9NQ50)
inactive: erlotinib -0.143 | [1] -0.094 | [2] -0.155 | [3] 0.055 | [4] 0.046 | [5] 0.014 | [6] 0.084 | [7] 0.074 | [8] -0.023 | [9] -0.141 | IRAK-1-4 Inhibitor I -0.012 | ibrutinib -0.032 | [10] 0.027 | ralimetinib -0.023 | [11] 0.065 | [12] 0.013 | [13] 0.224 | pinometostat 0.137 | [14] 0.052 | [15] -0.037

MOCS2 (UniProt O96007)
inactive: erlotinib -0.006 | [1] -0.05 | [2] 0.01 | [3] -0.006 | [4] 0.002 | [5] 0.006 | [6] -0.027 | [7] 0.034 | [8] -0.013 | [9] 0.058 | IRAK-1-4 Inhibitor I 0.061 | ibrutinib 0.039 | [10] 0.003 | ralimetinib -0.04 | [11] -0.022 | [12] 0.087 | [13] -0.017 | pinometostat -0.017 | [14] -0.002 | [15] -0.018

2 neighbouring records out of the list so far, quoted:
MMUT (UniProt P22033)
inactive: erlotinib 0.011 | [1] 0.035 | [2] 0.037 | [3] 0.018 | [4] 0.018 | [5] 0.008 | [6] -0.012 | [7] 0.003 | [8] -0.065 | [9] 0.04 | IRAK-1-4 Inhibitor I 0.012 | ibrutinib -0.019 | [10] -0.072 | ralimetinib -0.027 | [11] 0.112 | [12] -0.004 | [13] 0.047 | pinometostat -0.002 | [14] -0.013 | [15] 0.015

MIS18A (UniProt Q9NYP9)
inactive: erlotinib 0.031 | [1] 0.037 | [2] -0.041 | [3] -0.001 | [4] -0.026 | [5] 0.031 | [6] 0.044 | [7] -0.019 | [8] 0.007 | [9] 0.005 | IRAK-1-4 Inhibitor I -0.01 | ibrutinib 0.003 | [10] -0.004 | ralimetinib -0.032 | [11] 0.024 | [12] -0.032 | [13] -0.015 | pinometostat -0.037 | [14] 0.051 | [15] -0.016

Next part.

MRPL13 (UniProt Q9BYD1)
inactive: erlotinib -0.101 | [1] -0.08 | [2] -0.087 | [3] 0.037 | [4] -0.019 | [5] -0.053 | [6] 0.124 | [7] 0.075 | [8] 0.038 | [9] -0.14 | IRAK-1-4 Inhibitor I -0.069 | ibrutinib -0.035 | [10] 0.006 | ralimetinib 0.084 | [11] 0.019 | [12] 0.063 | [13] 0.076 | pinometostat 0.169 | [14] 0.117 | [15] -0.018

MRPL24 (UniProt Q96A35)
inactive: erlotinib -0.216 | [1] -0.172 | [2] -0.167 | [3] 0.004 | [4] -0.084 | [5] 0.024 | [6] 0.016 | [7] 0.137 | [8] -0.106 | [9] -0.199 | IRAK-1-4 Inhibitor I -0.063 | ibrutinib -0.051 | [10] 0.041 | ralimetinib 0.087 | [11] 0.063 | [12] 0.138 | [13] 0.065 | pinometostat 0.175 | [14] -0.031 | [15] -0.043

MRE11 isoform 3 (UniProt P49959)
inactive: erlotinib 0.018 | [1] -0.079 | [2] 0.02 | [3] 0.037 | [4] 0.023 | [5] 0.036 | [6] -0.063 | [7] -0.02 | [8] -0.003 | [9] 0.063 | IRAK-1-4 Inhibitor I 0.024 | ibrutinib -0.004 | [10] -0.042 | ralimetinib -0.031 | [11] 0.023 | [12] 0.108 | [13] 0.002 | pinometostat -0.02 | [14] 0.008 | [15] -0.019

MRM3 (UniProt Q9HC36)
inactive: erlotinib -0.097 | [1] -0.162 | [2] -0.389 | [3] 0.028 | [4] -0.008 | [5] -0.032 | [6] 0.136 | [7] -0.052 | [8] 0.038 | [9] -0.229 | IRAK-1-4 Inhibitor I -0.165 | ibrutinib 0.056 | [10] 0.108 | ralimetinib 0.25 | [11] 0.064 | [12] 0.018 | [13] 0.11 | pinometostat 0.441 | [14] -0.045 | [15] -0.42

MRPL53 (UniProt Q96EL3)
inactive: erlotinib -0.045 | [1] -0.023 | [2] -0.226 | [3] 0.086 | [4] -0.095 | [5] 0.02 | [6] 0.017 | [7] 0.079 | [8] -0.055 | [9] -0.09 | IRAK-1-4 Inhibitor I -0.095 | ibrutinib -0.05 | [10] 0.034 | ralimetinib 0.042 | [11] -0.004 | [12] -0.006 | [13] 0.046 | pinometostat 0.106 | [14] 0.044 | [15] 0.031

MRPL32 (UniProt Q9BYC8)
inactive: erlotinib -0.106 | [1] -0.133 | [2] -0.178 | [3] 0.049 | [4] -0.149 | [5] 0.018 | [6] -0.077 | [7] -0.012 | [8] 0.008 | [9] 0.008 | IRAK-1-4 Inhibitor I -0.028 | ibrutinib 0.021 | [10] 0.121 | ralimetinib 0.027 | [11] 0.031 | [12] 0.074 | [13] 0.154 | pinometostat 0.063 | [14] 0.09 | [15] -0.033

MMGT1 isoform 2 (UniProt Q8N4V1)
inactive: erlotinib 0.053 | [1] 0.054 | [2] 0.12 | [3] 0.05 | [4] 0.05 | [5] 0.023 | [6] -0.001 | [7] 0.006 | [8] 0.044 | [9] 0.002 | IRAK-1-4 Inhibitor I 0.007 | ibrutinib -0.002 | [10] -0.015 | ralimetinib -0.014 | [11] -0.011 | [12] -0.028 | [13] -0.023 | pinometostat -0.049 | [14] -0.001 | [15] 0.017

MRPL48 (UniProt Q96GC5)
inactive: erlotinib -0.202 | [1] -0.023 | [2] -0.142 | [3] 0.068 | [4] -0.097 | [5] 0 | [6] -0.038 | [7] 0.283 | [8] 0.004 | [9] -0.289 | IRAK-1-4 Inhibitor I -0.158 | ibrutinib -0.032 | [10] 0.011 | ralimetinib 0.046 | [11] 0.062 | [12] 0.009 | [13] 0.062 | pinometostat 0.106 | [14] 0.011 | [15] -0.034

MRPL19 (UniProt P49406)
inactive: erlotinib -0.277 | [1] -0.039 | [2] -0.166 | [3] 0.116 | [4] -0.065 | [5] 0.014 | [6] 0.012 | [7] 0.19 | [8] -0.037 | [9] -0.241 | IRAK-1-4 Inhibitor I -0.082 | ibrutinib -0.029 | [10] 0.108 | ralimetinib 0.086 | [11] 0.016 | [12] 0.036 | [13] 0.056 | pinometostat 0.158 | [14] 0.016 | [15] -0.032
